The nature of this test: qHTS Assay to Find Inhibitors of Chronic Active B-Cell Receptor Signaling. Conditions: ABC-DLBCL IkBa-CBG/CBR reporter, luminescence ratio (green luciferase fused to IkBa over red control in TMD8 lymphoma cells), 4 h. The gist of the method:
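TMD8 ABC-DLBCL cells carrying doxycycline-inducible green luciferase fused to IkappaBalpha plus unfused red luciferase were exposed to compounds (up to 46 uM) for 4 hrs at 37C. Activity came from the overlap-corrected green/red luminescence ratio.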

Setting [1] is: measured here: CBR red luminescence, cell number.
Where [2] appears, read: measured here: IkBa-CBG green luminescence.

This is one part of the list. Further columns of the screen follow, without active or inactive calls. The list favours compounds with an active or inconclusive main result. The note in brackets gives the kind of curve behind each potency; many fits are weak.

Turning to `CC1(C)Cc2cccc(OCC(=O)Nc3nccs3)c2O1`, the AC50 under setting [1] is 6.31 µM [falling, single point].
Still for that read-out and setting: then `COc1ccccc1NC(=O)CSC1=NC(=O)C(NC(C)=O)C(=O)N1` (configuration not stated), with 18.4 µM [falling, single point]; and `O=c1[nH]cnc2nn(-c3ccccc3)nc12`, with 17.8 µM [falling, single point]; and `COc1ccc(/C=N\NC(=O)c2sccc2C)cc1Cn1nc(C)cc1C`, with 8.91 µM [falling, partial curve, poor fit].
With `COc1ccc(-c2nc(SCC(=O)Nc3nccs3)c(-c3ccc(Cl)cc3)[nH]2)cc1`, the half-maximal activity concentration (AC50) was 32.6 µM [falling, single point] under setting [1] and 14.6 µM [rising, partial curve, poor fit] under setting [2].
Take `CCN(CC)C(=O)[C@H]1C[C@H](CC(=O)NCc2ccc(OC)c(OC)c2)C(=O)N2CCc3c([nH]c4ccc(Cl)cc34)[C@]12C`: the half-maximal activity concentration (AC50) under setting [1] is 20.6 µM [falling, partial curve, poor fit].
The same measure, in the same setting: to `CC1(C)C2CC=C(/C=N/NC(=O)c3ccccc3O)C1C2` (configuration not stated) belongs 29.1 µM [falling, partial curve, poor fit]; to `Fc1ccc(NC(=S)Nc2cccc(Cl)c2)cc1`, 0.517 µM [rising, full curve, poor fit]; to `O=C(Nc1ccon1)c1cc2c(s1)CCCCCC2`, 14.6 µM [falling, single point].
On the same count and under the same terms, to `CCn1cc(/C=N/NC(=O)c2ccc3c(c2)OCO3)cn1` belongs 9.2 µM [falling, partial curve]; to `O=C(Nc1ccc(F)cc1F)c1cc(Cl)sc1Cl`, 0.631 µM [rising, full curve, poor fit].
On the same count and under the same terms, then `CC(C)CN(CC(C)C)S(=O)(=O)c1cc([N+](=O)[O-])ccc1N1CCCCCC1`, with 3.98 µM [falling, full curve, poor fit]; and `CCOC(=O)c1c(C(C)(C)C)oc2ccc(O)cc12`, with 31.6 µM [rising, single point]; and `C=C(C)c1cccc(C(C)(C)NC(=O)Nc2ccc(OC)nc2)c1`, with 35.5 µM [falling, single point].
Consider `OCc1cc(Br)ccc1OCc1nc2ccccc2s1`, for which the AC50 under setting [1] is 0.355 µM [falling, full curve].
Take `N#CC1=C(N)NC(SCc2ccc(Br)cc2)=C(C#N)C12CCCCC2`: the concentration at half-maximal activity (AC50) runs as follows: under setting [1], 23.1 µM [falling, single point]; under setting [2], 20.6 µM [rising, single point].
On to `Cc1cccc(Cn2cc(/C=C/[N+](=O)[O-])c3ccccc32)c1`, for which the half-maximal activity concentration (AC50) under setting [2] is 35.5 µM [falling, partial curve, poor fit].
In the case of `CC(=O)Cc1nsc(NC(=O)c2ccc(COc3ccccc3Cl)o2)n1`, the AC50 under setting [1] was 25.1 µM [falling, single point].
Still for that read-out and setting: to `Cc1ccccc1NC(=O)C(=O)NCCc1ccccc1` belongs 13 µM [falling, partial curve]; to `O=C(NCCC1=CCCCC1)c1cc(-c2ccccn2)nc2ccccc12`, 25.1 µM [rising, partial curve, poor fit]; to `Cc1cc(/C=C2/C(=N)N3C(c4ccccc4)=CSC3=NC2=O)c(C)n1-c1ccccc1`, 0.103 µM [rising, partial curve, poor fit].
`Cc1ccc(-n2ncc(C(=O)NCc3ccc4c(c3)OCO4)c2NC(=O)c2ccco2)cc1C`: under setting [1], the half-maximal activity concentration (AC50) is 35.5 µM [rising, partial curve, poor fit].
For `Cc1cccc(C)c1N1C(=O)CC(N2CCSCC2)C1=O` (configuration not stated), the AC50 under setting [1] was 35.5 µM [falling, single point].
Consider `COc1ccc(CNc2ncccc2[N+](=O)[O-])cc1`, for which the AC50 under setting [1] was 6.31 µM [rising, full curve, poor fit].
`Cc1[nH]c2ccccc2c1C(=O)CN1CCSCC1`: the AC50 under setting [1] was 10 µM [rising, partial curve].
The same measure, in the same setting: then `CCOC(=O)C1=C(CSc2nc(C)cc(C)c2C#N)OC(N)=C(C#N)C1c1ccccc1` (configuration not stated), with 35.5 µM [falling, single point].
`Fc1ccc2[nH]c3c(NCc4ccccc4)ncnc3c2c1`: the AC50 under setting [1] was 31.6 µM [falling, single point].
For `O=C(NCC(=O)N(c1cccnc1)C(C(=O)NC1CCCC1)c1ccccc1)c1ccco1` (configuration not stated), the AC50 under setting [1] is 0.708 µM [rising, full curve, poor fit].
Still for that read-out and setting: to `O=C1N[C@H](Cc2c[nH]c3ccccc23)COC(=O)[C@H](Cc2ccc(F)cc2)C/C=C\C[C@H]1CC(=O)N(CCO)Cc1ccccc1` belongs 29.1 µM [falling, single point]; to `CC(C)(C)OC(=O)N/N=C/c1ccc(Br)cc1`, 2.82 µM [rising, partial curve]; to `CC(/C=C/c1ccco1)=N\NC(=O)c1cccnc1`, 16.4 µM [falling, single point].
Same read-out and setting: to `O=C(Nc1ccc2c(c1)CCC2)c1ccc(F)cc1` belongs 32.6 µM [falling, single point].
On the same count and under the same terms, to `CSc1ccc(C(=O)C2CCCN(C(=O)Cc3nonc3C)C2)cc1` (configuration not stated) belongs 6.31 µM [rising, single point]; to `C=CCNC(=O)c1onc(CSc2cccc(C)c2)c1C(=O)O`, 22.4 µM [falling, partial curve]; to `NC(=O)C1CCCN1S(=O)(=O)c1ccc2ccccc2c1` (configuration not stated), 20 µM [rising, partial curve, poor fit].
With `CC1(C)Cc2c(cnn2-c2ccc(F)cc2)C(NC(=O)CN2CCCCC2=O)C1` (configuration not stated), the half-maximal activity concentration (AC50) under setting [1] is 8.91 µM [falling, partial curve].
As for `COc1cc(/C=N\Nc2nc3ccccc3[nH]2)cc(OC)c1OC`, under setting [1], the AC50 was 35.5 µM [falling, single point].
On the same count and under the same terms, then `Cc1ccc(/C=N/N2C(=S)SC(C)(C)C2N(O)C(=O)Nc2ccc([N+](=O)[O-])cc2)cc1` (configuration not stated), with 14.1 µM [falling, partial curve]; and `O=C(CCCN1C(=O)/C(=C/c2cccc(Br)c2)SC1=S)Nc1cccnc1`, with 7.08 µM [falling, partial curve]; and `COc1ccc(Cl)cc1C(=O)N(Cc1nc(-c2cccc(C)c2)no1)C(C)C`, with 28.2 µM [falling, single point].
As for `CCOc1ccc(CCNC(=O)COC(=O)CNC(=O)c2ccc(Br)o2)cc1OCC`, under setting [1], the AC50 was 4.11 µM [rising, full curve, poor fit].
Same read-out and setting: to `O=C(COc1ccccc1)Nc1ccccc1C(=O)NCc1ccco1` belongs 11.2 µM [falling, single point]; to `Cc1cc(C)cc(N=Cc2ccc([N+](=O)[O-])s2)c1`, 23.1 µM [falling, single point]; to `O=C(N/N=C/c1cccnc1)c1cc(C2CC2)nc2ccccc12`, 35.5 µM [falling, single point].
Consider `CCOC(=O)C1CCN(C(=O)c2cc(-c3ccncc3)nc3ccccc23)CC1`, for which the concentration at half-maximal activity (AC50) under setting [1] is 29.1 µM [rising, single point].
Turning to `Cc1cccc(Oc2ccccc2N)c1`, the AC50 under setting [1] is 0.058 µM [rising, full curve, poor fit].
On the same count and under the same terms, to `COC(=O)CNC(=O)c1c(-c2c(Cl)cccc2Cl)noc1C` belongs 7.94 µM [rising, partial curve, poor fit]; to `OC(COCc1cccs1)CN1CCN(c2ccccc2Cl)CC1` (configuration not stated), 7.31 µM [rising, partial curve, poor fit]; to `CCSc1nnc(NC(=O)c2c(-c3ccccc3Cl)noc2C)s1`, 10 µM [falling, partial curve, poor fit].
With `C/C(CC(=O)Nc1cc(C)cc(C)c1)=N\NC(=O)c1ccccn1`, the concentration at half-maximal activity (AC50) under setting [1] is 11.6 µM [falling, partial curve].
For `c1ccc(N2CCN(c3nc4ccccc4n4nnnc34)CC2)cc1`, the half-maximal activity concentration (AC50) runs as follows: under setting [1], 5.8 µM [falling, partial curve]; under setting [2], 1.84 µM [rising, full curve, poor fit].
Consider `CC(C)c1nnc(NC(=O)CCC(=O)NCC2CCCO2)s1` (configuration not stated), for which, under setting [1], the half-maximal activity concentration (AC50) is 35.5 µM [rising, single point].
On the same count and under the same terms, to `O=C1N/C(=N\c2ccccn2)SC1Cc1ccc(Cl)cc1` (configuration not stated) belongs 1.12 µM [rising, full curve].
On the same count and under the same terms, then `CS(=O)(=O)N1CCN(c2ccccc2NC(=O)c2cccc3ccccc23)CC1`, with 0.146 µM [rising, full curve, poor fit].
On to `CC1CCCN(S(=O)(=O)c2ccc(NC(=O)Cc3ccc(S(=O)(=O)N4CCOCC4)s3)cc2)C1` (configuration not stated), for which, under setting [1], the concentration at half-maximal activity (AC50) is 6.51 µM [falling, partial curve, poor fit].
With `CC(C)NC(=O)c1ccc2c(c1)N(CC(=O)N1CCCC1)C(=O)C(C)(C)O2`, under setting [1], the half-maximal activity concentration (AC50) was 20 µM [rising, partial curve, poor fit].
Regarding `O=C(NC(=S)Nc1ccc(S(=O)(=O)N2CCCC2)cc1)C1CC1`, the AC50 under setting [1] is 5.62 µM [rising, partial curve, poor fit].
The same measure, in the same setting: to `Cc1c(Cl)c(C(=O)NNC(=S)NCc2ccco2)nn1C` belongs 16.4 µM [falling, single point]; to `CN1/C(=C\C(=S)NC(=O)c2cccc(Br)c2)C(C)(C)c2ccccc21`, 6.51 µM [rising, single point]; to `CN1c2ccsc2C(O)=C(C(=O)Nc2ccccc2)S1(=O)=O`, 18.4 µM [falling, partial curve].
The same measure, in the same setting: then `Cc1ccccc1NC(=S)NNC(=O)c1ccco1`, with 10 µM [falling, partial curve].
On the same count and under the same terms, to `Cc1c(CC(=O)NCCC(C)C)c(=O)oc2cc3c(cc12)CCC(C)(C)O3` belongs 3.55 µM [rising, single point]; to `COc1cccc(Cn2cnc3c(NS(=O)(=O)c4ccc(Cl)cc4Cl)c(C)c(C)cc32)c1`, 5.01 µM [falling, partial curve, poor fit]; to `CN(C)S(=O)(=O)c1ccc(C(=O)N2CCN(C(=O)C3CCCO3)CC2)cc1` (configuration not stated), 3.66 µM [rising, partial curve, poor fit].
